Measured values taken from PubChem BioAssay AID1487 (National Center for Advancing Translational Sciences (NCATS), 2009).
This is one part of the list. Shown are side measurements of this screen, not its main read-out; they come without a call. Compounds called inactive in the main read-out are mostly missing here. The note in brackets gives the kind of curve behind each potency; many fits are weak.

Test: qHTS Assay for Modulators of Lamin A Splicing
Conditions: HeLa LMNA splicing GFP/RFP minigene ratio, 48 h
How it was run: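 S3 HeLa cells stably expressing lamin A-EGFP splicing minigene plus DsRed2, 600 cells/well, 48 h compound exposure at 37C. Laser-scanning cytometry; analysed as GFP (500-530 nm)/RFP (575-640 nm) total intensity ratio; 0.5% DMSO vehicle.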

[1] = measured here: GFP splicing reporter channel
[2] = measured here: RFP viability control channel

Row | SMILES | AC50 [1] | AC50 [2]
1 | CC(=N\O)/C(CN(C)C)=N/O | 1.58 µM [rising, full curve, poor fit] | 
2 | COc1ccc(/C=N/Nc2cc(C)nc(-n3nc(C)cc3C)n2)c(OC)c1 | 35.5 µM [rising, single point] | 35.5 µM [rising, single point]
3 | Cc1cc(C)cc(NC(=O)N2CCN(Cc3ccc4c(c3)OCO4)CC2)c1 |  | 11.2 µM [falling, partial curve, poor fit]
4 | Fc1ccc(CNC(=S)Nc2ccccc2Cl)cc1 | 0.398 µM [falling, single point] | 0.355 µM [falling, partial curve]
5 | COc1ccc2[nH]cc(CCNc3ncncc3-c3ccccc3C)c2c1 | 17.8 µM [falling, partial curve, poor fit] | 
6 | O=C(CSc1nnc(-c2ccccn2)n1-c1ccccc1)Nc1ccc2c(c1)OCO2 | 31.6 µM [rising, single point] | 
7 | CCCCCn1ccc(=O)c2c(C(F)(F)F)nccc21 | 14.1 µM [rising, partial curve] | 11.2 µM [rising, partial curve]
8 | C1=C(c2cccc3ccccc23)N2CCN=C2S1 | 12.6 µM [rising, single point] | 25.1 µM [rising, single point]
9 | Cc1c(C(=O)Nc2ccc(F)c(Cl)c2)sc2nc3n(c(=O)c12)CCC3 |  | 35.5 µM [rising, partial curve, poor fit]
10 | O=[N+]([O-])c1cc(C(F)(F)F)ccc1NCCCCNS(=O)(=O)c1ccc(Cl)cc1 |  | 17.8 µM [rising, partial curve]
11 | CC(Sc1nc2ccccc2s1)C(=O)Nc1ccc2c(c1)OCO2 (configuration not stated) |  | 20 µM [rising, single point]
12 | COc1ccccc1N1CCN(c2ncnc3c2cnn3-c2ccc(C)cc2)CC1 | 11.2 µM [falling, partial curve] | 0.00891 µM [falling, full curve, poor fit]
13 | COc1ccc(C2=NOC(C(=O)NCc3cccs3)C2)cc1 (configuration not stated) |  | 7.94 µM [rising, partial curve, poor fit]
14 | O=C(CSc1nc(-c2ccco2)cc(C(F)(F)F)n1)NCCCn1ccnc1 |  | 2.82 µM [rising, partial curve]
15 | COc1ccc(C)cc1N(C(=O)c1ccccc1)c1nc2ccccc2s1 |  | 35.5 µM [rising, partial curve, poor fit]
16 | Cn1nnnc1Sc1ncnc2scc(-c3ccccc3)c12 | 10 µM [falling, partial curve] | 14.1 µM [rising, partial curve]
17 | CSc1ccc(C(=O)C2CCCN(S(=O)(=O)N(C)C)C2)cc1 (configuration not stated) | 0.0398 µM [falling, full curve, poor fit] | 
18 | Cc1c(C(=O)Nc2ccc(Oc3ccccc3)cc2)sc2nc3n(c(=O)c12)CCC3 | 35.5 µM [rising, single point] | 35.5 µM [rising, single point]

Row | SMILES | AC50 [1] | AC50 [2]
19 | COC(=O)[C@@H]1CC[C@H](C)[C@@H](c2ccc(C)cc2)N1C(=O)c1ccc(/C=N/O[C@@H](C)CN2CCCCc3nc(C)c(C)cc32)cc1 | 6.31 µM [rising, partial curve] | 
20 | CCCN1CCC(NC(=O)CCc2nnc(Cc3cc(OC)ccc3OC)o2)CC1 |  | 0.00447 µM [falling, full curve, poor fit]
21 | Nc1ccc(C(=O)Nc2nccs2)cc1 | 0.0631 µM [falling, full curve, poor fit] | 0.0316 µM [falling, full curve, poor fit]
22 | CC(C)Sc1nc2ccc(Br)cc2[nH]1 |  | 11.2 µM [falling, partial curve]
23 | O=C1c2ccccc2C(=O)N1CCc1csc(-c2ccc(F)cc2)n1 |  | 12.6 µM [rising, single point]
24 | CNS(=O)(=O)c1ccc(N=Cc2c(C)[nH]n(-c3ccc(C)cc3C)c2=O)cc1 | 0.0891 µM [falling, full curve, poor fit] | 
25 | S=C(Nc1ccc(Cl)cc1Cl)NC1CCN(Cc2ccccc2)CC1 |  | 35.5 µM [rising, single point]
26 | CC(=O)Nc1ccccc1N(C)S(=O)(=O)c1ccc(C)cc1 | 35.5 µM [rising, single point] | 15.8 µM [rising, single point]
27 | Cc1cc(/C=N/NC(=O)c2cccs2)c(C)n1-c1ccccc1 |  | 7.08 µM [rising, partial curve]
28 | O=C(COc1ccccc1)Nc1cccc(-c2nc3ccccc3[nH]2)c1 |  | 11.2 µM [rising, partial curve, poor fit]
29 | COC(=O)C(C(=O)OC)[C@@H]1c2ccccc2[C@H]2C(=C[C@@H](C)[C@H]3C(=O)N(c4ccccc4)C(=O)[C@H]32)N1C(=O)OC | 0.398 µM [falling, partial curve, poor fit] | 
30 | C=CCN(CC(=O)O)S(=O)(=O)c1ccccc1C(F)(F)F | 1.58 µM [falling, partial curve, poor fit] | 
31 | CC(C)(C)NC(=S)NC(=O)C12CCC3CC(CC(C3)C1)C2 | 5.62 µM [falling, single point] | 
32 | CCOc1ccccc1C(=O)N1CCC(c2nc3ccccc3o2)CC1 | 39.8 µM [falling, partial curve, poor fit] | 0.00708 µM [falling, partial curve, poor fit]
33 | COc1cc(/C=C/C(=O)NCCn2c(C)cc3ccccc32)cc(OC)c1OC | 17.8 µM [rising, single point] | 12.6 µM [rising, partial curve, poor fit]
34 | CSc1nc(SCCO)c2sc3nc(-c4ccco4)c4c(c3c2n1)CC(C)(C)OC4 | 35.5 µM [rising, single point] | 
35 | CCOC(=O)c1c(CN2CCOCC2)n(-c2ccccc2)c2cc(Br)c(OC)cc12 | 12.6 µM [rising, single point] | 12.6 µM [rising, single point]

An excerpt of these results, as labelled records:
CSc1nc(SCCO)c2sc3nc(-c4ccco4)c4c(c3c2n1)CC(C)(C)OC4
  AC50 [1]: 35.5 µM [rising, single point]
CCOC(=O)c1c(CN2CCOCC2)n(-c2ccccc2)c2cc(Br)c(OC)cc12
  AC50 [1]: 12.6 µM [rising, single point]; AC50 [2]: 12.6 µM [rising, single point]
